Test results: patent publication US20070003517A1 (UNIVERSITY OF MASSACHUSETTS, published 2007)
No constants are given. Whether binding was seen depends on the method and setting. In cells and extracts the contact can be indirect. Some binding calls cover weakened binding; strength is not graded here. For part of these data: Tags and fused reporters may be left off the sequences shown.

By UniProt entry, the sequences of proteins in these tests, tags left out. Where a name states a change or a piece, a line headed by the entry shows the natural chain unless it says otherwise. Chains listed by the source or under a name are the forms on record and can include a tag or linker.
Flag epitope-tagged JNK1 (cell lysate) (P45983-2, form named): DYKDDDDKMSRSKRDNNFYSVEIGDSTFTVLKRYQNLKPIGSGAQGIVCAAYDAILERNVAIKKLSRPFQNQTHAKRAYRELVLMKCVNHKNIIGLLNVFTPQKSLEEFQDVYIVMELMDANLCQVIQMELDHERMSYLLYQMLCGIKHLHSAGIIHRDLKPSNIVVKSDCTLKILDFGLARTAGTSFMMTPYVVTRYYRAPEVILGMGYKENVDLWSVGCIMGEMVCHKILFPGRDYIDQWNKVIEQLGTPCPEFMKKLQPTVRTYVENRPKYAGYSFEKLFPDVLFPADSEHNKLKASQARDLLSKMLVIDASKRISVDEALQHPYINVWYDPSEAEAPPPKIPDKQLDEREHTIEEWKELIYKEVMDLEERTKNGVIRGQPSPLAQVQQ

What was measured:
[1] = target: T1, Flag epitope-tagged JNK1 (cell lysate) (human, UniProt P45983-2 1-384, limits assumed); test: GST pull-down from cell lysate, immunoblot
T1 construct: written N-terminal here

[2] = target: T1, Flag epitope-tagged JNK1 (cell lysate); test: peptide competition of GST-JIP-1 (127-281) pull-down of JNK1, immunoblot
[3] = target: T1, Flag epitope-tagged JNK1 (cell lysate); test: peptide competition (0, 4, 8, 16, 32, 64 µg/ml) of GST-JIP-1 (127-281) pull-down of Flag-JNK, immunoblot

Binder | binding [1] | binding [2] | binding [3]
PKAESNQDPAPRSQGQGPGTGSGDTYRPKRPTTLNLF (peptide, not shown: a dimerising Fc or GST) [GST fusion protein containing residues 127-163 of JIP-1] | binds |  | 
SGDTYRPKRPTTLNLFPQVPRSQDTLN [synthetic peptide corresponding to JIP-1 residues 148-174] |  | binds | binds
